Experimental data reported in publication PMC10579421.
No constants are given. Whether binding was seen depends on the method and setting. In cells and extracts the contact can be indirect. A yes stands for co-enrichment or nearness to the bait. Other partners may have been found.

Target: Flag-NCOR2-013 (human)
Assay: affinity purification with mass spectrometry

binding: binds
B1: JunB (protein, UniProt P17275 1-347)
chain: MCTKMEQPFYHDDSYTATGYGRAPGGLSLHDYKLLKPSLAVNLADPYRSLKAPGARGPGPEGGGGGSYFSGQGSDTGASLKLASSELERLIVPNSNGVITTTPTPPGQYFYPRGGGSGGGAGGAGGGVTEEQEGFADGFVKALDDLHKMNHVTPPNVSLGATGGPPAGPGGVYAGPEPPPVYTNLSSYSPASASSGGAGAAVGTGSSYPTTTISYLPHAPPFAGGHPAQLGLGRGASTFKEEPQTVPEARSRDATPPVSPINMEDQERIKVERKRLRNRLAATKCRKRKLERIARLEDKVKTLKAENAGLSSTAGLLREQVAQLKQKVMTHVSNGCQLLLGVKGHAF
